PubChem BioAssay AID504764, Drosophila RNAi Screening Center, 2011
Assay: 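Genes whose knock-down alters Notch-dependent transcription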 (primary screen). Cells: Drosophila Kc167 cells. Reagent: long dsRNA against Drosophila genes. Timing: about 5 days (4 days dsRNA, then 24 h after transfection). Conditions: transfection of constitutively active membrane-tethered Notch lacking the extracellular domain, read 24 h later. Measured: 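Light from a Notch-responsive E(spl)m3 luciferase reporter under active Notch, with control-promoter and no-Notch reporter wells to normalise; raw counts from paired wells a and b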. Reading the numbers: induced reporter light, run 1, well a and induced reporter light, run 1, well b: higher = more light from the Notch target reporter with active Notch; control promoter light, run 1, well a and control promoter light, run 1, well b: higher = more light from the viral control promoter (cell number, transfection, viability); uninduced reporter light, run 1, well a: higher = more light from the Notch target reporter without active Notch. Active means: 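Hit if the duplicate-averaged log2 ratio of induced to control-promoter light gives a plate-wise z beyond ±2, or induced to uninduced beyond ±1.8; weak-control or discordant-duplicate wells dropped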. Calls: active = modifier hit (raised or lowered Notch signal); inactive = not a hit.
In all, the deposit lists about 22,000 reagents; shown is a random part of those that have a named target and a result. Of all reagents, 403 (1.9%) got an active call. 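Unnormalised raw counts per well; ratio z-scores behind the hit calls and whether each hit raises or lowers signal are not deposited.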 Unmarked entries are inactive. Names joined by + are all predicted targets of the reagent. No sequences are given here. Not given: the amount of reagent.

The opening 4 entries as a preview:
Target gene | dsRNA | induced reporter light, run 1, well a | induced reporter light, run 1, well b | control promoter light, run 1, well a | control promoter light, run 1, well b | uninduced reporter light, run 1, well a
CG42399 | DRSC00322 | 1.22e5 | 1.30e5 | 1.07e5 | 62665 | 8195
CG42399 | DRSC00661 | 2.02e5 | 1.50e5 | 1.21e5 | 81070 | 12900
CG9541 | DRSC03257 | 99995 | 1.10e5 | 61120 | 74440 | 15460
inaE | DRSC19376 | 1.16e5 | 1.16e5 | 1.27e5 | 1.22e5 | 16965

Main list, repeating the preview:
Target gene | dsRNA | induced reporter light, run 1, well a | induced reporter light, run 1, well b | control promoter light, run 1, well a | control promoter light, run 1, well b | uninduced reporter light, run 1, well a
CG42399 | DRSC00322 | 1.22e5 | 1.30e5 | 1.07e5 | 62665 | 8195
CG42399 | DRSC00661 | 2.02e5 | 1.50e5 | 1.21e5 | 81070 | 12900
CG9541 | DRSC03257 | 99995 | 1.10e5 | 61120 | 74440 | 15460
inaE | DRSC19376 | 1.16e5 | 1.16e5 | 1.27e5 | 1.22e5 | 16965
inaE | DRSC19377 | 1.85e5 | 1.98e5 | 2.35e5 | 3.03e5 | 13420
inaE | DRSC19379 | 88985 | 82445 | 81300 | 82975 | 10655
inaE | DRSC19726 | 88575 | 95760 | 1.16e5 | 1.05e5 | 9140
CG17258 | DRSC00495 | 2.44e5 | 2.20e5 | 3.28e5 | 2.72e5 | 11480
Snx6 | DRSC03081 | 1.47e5 | 1.71e5 | 1.72e5 | 1.91e5 | 14575
CG4239 | DRSC19885 | 1.47e5 | 1.61e5 | 2.64e5 | 2.41e5 | 12900
Mpc1 | DRSC14770 | 2.61e5 | 2.82e5 | 3.14e5 | 3.21e5 | 17360
CG6607 | DRSC16073 | 1.37e5 | 1.27e5 | 1.47e5 | 1.41e5 | 10210
Hsp70Aa + Hsp70Bb + Hsp70Ba + 3 more | DRSC15380 | 77885 | 86020 | 89675 | 98490 | 5730
Cdk2 | DRSC16921 | 1.63e5 | 1.73e5 | 2.18e5 | 1.86e5 | 16685
Cpr11B | DRSC19859 | 1.47e5 | 1.45e5 | 1.87e5 | 2.13e5 | 12555
CG31862 | DRSC01245 | 1.15e5 | 1.02e5 | 1.56e5 | 1.67e5 | 7645
Or67b | DRSC11241 | 1.17e5 | 1.07e5 | 1.53e5 | 1.59e5 | 6665
sut2 | DRSC07701 | 1.46e5 | 1.13e5 | 1.23e5 | 1.20e5 | 11190
CG14837 | DRSC10207 | 1.57e5 | 1.13e5 | 1.26e5 | 1.11e5 | 7060
Klp67A | DRSC11205 | 2.62e5 | 1.71e5 | 2.71e5 | 2.45e5 | 11725
tplus3a + tplus3b | DRSC03687 | 69010 | 69600 | 68905 | 86990 | 6320
Dph2 | DRSC16222 | 1.28e5 | 1.04e5 | 75010 | 67145 | 9730
BthD | DRSC19395 | 82350 | 1.07e5 | 1.11e5 | 74285 | 5740
wus | DRSC20278 | 1.28e5 | 1.17e5 | 1.05e5 | 58250 | 10975
Tsf3 | DRSC06849 | 1.11e5 | 1.19e5 | 2.28e5 | 2.41e5 | 11160
CG42712 (retired record) | DRSC01038 | 1.23e5 | 1.30e5 | 1.20e5 | 1.31e5 | 9650
Trissin | DRSC14994 | 2.97e5 | 3.29e5 | 2.61e5 | 2.70e5 | 18400
CG13404 | DRSC19536 | 1.12e5 | 99380 | 1.54e5 | 99695 | 15055
CG9864 | DRSC07346 | 41170 | 27450 | 50265 | 45955 | 3955
CG13947 | DRSC00365 | 1.93e5 | 1.57e5 | 1.53e5 | 1.38e5 | 13355
CCDC151 | DRSC10131 | 1.04e5 | 1.43e5 | 1.93e5 | 1.54e5 | 6695
CG5653 | DRSC10534 | 2.52e5 | 3.09e5 | 3.61e5 | 3.36e5 | 19930
Glo1 | DRSC06657 | 2.33e5 | 2.33e5 | 2.93e5 | 2.87e5 | 18615
loaf | DRSC09130 | 1.40e5 | 1.56e5 | 1.24e5 | 1.50e5 | 9380
HP1c | DRSC16166 | 1.61e5 | 1.62e5 | 2.43e5 | 2.20e5 | 14665
Kots | DRSC16581 | 1.13e5 | 1.29e5 | 87485 | 88360 | 8575
Osi17 | DRSC12284 | 81305 | 64500 | 52465 | 49980 | 5045
CCT6 | DRSC20095 | 58640 | 53720 | 79790 | 54635 | 5520
tsu | DRSC07265 | 2.07e5 | 1.75e5 | 1.95e5 | 1.88e5 | 13445
RpL8 | DRSC08532 | 6125 | 5960 | 8970 | 10750 | 475
RpL8 | DRSC08695 | 7542 | 7050 | 10900 | 13010 | 365
Vps51 | DRSC06519 | 1.03e5 | 1.16e5 | 1.81e5 | 1.96e5 | 9205
CG14659 | DRSC12245 | 1.09e5 | 1.07e5 | 1.43e5 | 1.11e5 | 9245
CG3107 | DRSC04888 | 1.67e5 | 1.72e5 | 1.43e5 | 1.83e5 | 12845
Tango11 | DRSC03890 | 63440 (active) | 47880 | 52190 | 61440 | 7005
Tango11 | DRSC03892 | 60560 (active) | 43285 | 69320 | 82080 | 6325
SMC2 | DRSC07544 | 1.17e5 | 90590 | 81850 | 63290 | 8765
Muc26B | DRSC02322 | 1.20e5 | 84545 | 92165 | 87365 | 6265
hoe2 | DRSC00459 | 1.83e5 | 1.64e5 | 1.61e5 | 1.72e5 | 11250
COX4 | DRSC02091 | 72120 | 83155 | 76855 | 74185 | 5025
Cox17 | DRSC20145 | 1.20e5 | 92290 | 1.03e5 | 1.06e5 | 12570
CG1421 | DRSC03707 | 44525 | 46110 | 41265 | 50620 | 3170
CG5509 | DRSC15822 | 66240 | 64550 | 65410 | 66420 | 3795
CG30031 + deltaTry + gammaTry | DRSC07622 | 1.35e5 | 1.25e5 | 1.72e5 | 1.77e5 | 11315
CG43322 | DRSC02280 | 78290 | 51185 | 70325 | 66435 | 4890
Uxs | DRSC10941 | 63130 | 46130 | 40735 | 21032 | 5145
CG6726 | DRSC16101 | 1.76e5 | 1.64e5 | 2.05e5 | 2.30e5 | 14330
DnaJ-1 | DRSC11145 | 65935 (active) | 69240 | 88290 | 38310 | 10395
fit | DRSC15280 | 1.93e5 | 1.87e5 | 2.08e5 | 2.12e5 | 17405
Cpes | DRSC04475 | 1.59e5 | 1.38e5 | 1.54e5 | 1.30e5 | 11932
mv | DRSC08208 | 84935 | 1.10e5 | 1.37e5 | 1.40e5 | 7410
mv | DRSC08570 | 1.24e5 | 1.24e5 | 2.01e5 | 1.76e5 | 5595
Teh3 | DRSC08537 | 1.32e5 | 1.33e5 | 2.19e5 | 1.33e5 | 11150
PGRP-LD + Pmi | DRSC10512 | 1.10e5 | 1.44e5 | 1.03e5 | 76485 | 16335
PGRP-LD + Pmi | DRSC10513 | 1.54e5 | 1.63e5 | 1.60e5 | 1.13e5 | 13030
